This assay concerns CD2F1 mice, L1210 leukemia ip, survival T/C. Put plainly: NCI In Vivo Anticancer Drug Screen. Data for tumor model L1210 Leukemia (intraperitoneal) in CD2F1 (CDF1) mice. The settings on record: higher T/C = longer survival. An outline of the steps: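 Antitumor effect is scored in animals hosting a serially transplanted tumor. Values compare compound-dosed animals against vehicle-only controls as a simple quotient.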

The mark [1] stands for this setting: T/C endpoint: mean survival time, dose: 100.0 mg/kg/injection, schedule: Q04DX003 (ip), vehicle: saline with Tween-80.
Where [2] appears, read: T/C endpoint: mean survival time, dose: 200.0 mg/kg/injection, schedule: Q04DX003 (ip), vehicle: saline with Tween-80.
Where [3] appears, read: T/C endpoint: mean survival time, dose: 400.0 mg/kg/injection, schedule: Q04DX003 (ip), vehicle: saline with Tween-80.
Where [4] appears, read: T/C endpoint: mean survival time, dose: 400.0 mg/kg/injection, schedule: Q04DX003 (ip), vehicle: saline.
The mark [5] stands for this setting: T/C endpoint: mean survival time, dose: 100.0 mg/kg/injection, schedule: Q01DX009 (ip), vehicle: saline.
The mark [6] stands for this setting: T/C endpoint: mean survival time, dose: 200.0 mg/kg/injection, schedule: Q01DX009 (ip), vehicle: saline.
The mark [7] stands for this setting: T/C endpoint: mean survival time, dose: 400.0 mg/kg/injection, schedule: Q01DX009 (ip), vehicle: saline.
Where [8] appears, read: T/C endpoint: mean survival time, dose: 200.0 mg/kg/injection, schedule: Q04DX003 (ip), vehicle: saline.
The mark [9] stands for this setting: T/C endpoint: mean survival time, dose: 300.0 mg/kg/injection, schedule: Q01DX001 (ip), vehicle: other.

The structures appear in SMILES notation. The list does not hold the whole screen: it gathers tests that were run many times, whatever their T/C, doses with no T/C, and many T/C values between a quarter and a half above the control. Further doses and runs are listed elsewhere. T/C is the treated group as % of the vehicle group. Some entries give survivors of the animals treated and no T/C: the source files T/C as zero there, which appears to mark a toxic dose or a test without result, not a measured value. Some survivor counts are full or nearly so, which does not show that the dose was tolerated: survival well below the control is almost never listed, so the zero probably covers shortened survival too. Survivors were counted at the toxicity check, usually on the fifth day, unless a day is given; later deaths do not show. Schedules are NCI's codes, taken here to give the interval after Q, in days (D) or hours (H), and the number of doses after X. Some entries were tested several times; the values are given in rising order. For survival time, the PubChem record calls one and a half times the control and up active, and a quarter to a half above the control has no call in these data; cut-offs in other NCI protocols can differ. Marks such as (2×) stand for listed records that agree.

In the case of `CCCC(C)C1=NC(C)(C)CCO1` (centres undefined), the survivor count under setting [1] is 6 of 6, the survivor count under setting [2] was 0 of 6 and the survivor count under setting [3] is reported as 0 of 6.

Consider `CN(C)CCCNCC#CCNCCCN(C)C`, for which the survivor count under setting [4] is 3 of 6.

Consider `CCOC(=O)C(C)C(=O)O` (centres undefined), for which the survivor count under setting [4] is reported as 3 of 6.

Take `CCC(=O)N(C)[C@@H](C)C(=O)O[C@H]1CC(=O)N(C)c2cc(cc(OC)c2Cl)C/C(C)=C/C=C[C@@H](OC)[C@@]2(O)C[C@H](OC(=O)N2)[C@@H](C)[C@@H]2O[C@@]12C`: the T/C (T/C endpoint: mean survival time, dose: 10.0 micrograms/kg/injection, schedule: Q01DX009 (ip), vehicle: saline + alcohol) is 130 % of control. Also, the survivor count reads like this: (T/C endpoint: mean survival time, dose: 15.0 micrograms/kg/injection, schedule: Q01DX009 (ip), vehicle: saline + alcohol) 5 of 6; (T/C endpoint: mean survival time, dose: 30.0 micrograms/kg/injection, schedule: Q01DX009 (ip), vehicle: saline + alcohol) 2 of 6; (T/C endpoint: mean survival time, dose: 60.0 micrograms/kg/injection, schedule: Q01DX009 (ip), vehicle: saline + alcohol) 2 of 6.

Regarding `CC1(C)N=C(N)N=C(N)N1c1cccc(OCCOc2cccc(N)c2)c1`, the survivor count (T/C endpoint: mean survival time, dose: 100.0 mg/kg/injection, schedule: Q01DX001 (ip), vehicle: Klucel (hydroxypropylcellulose) (HPC)) is listed as 1 of 3.

In the case of `CN1CCC(Br)(C(=O)c2ccccc2)CC1`, for the setting “T/C endpoint: mean survival time, dose: 300.0 mg/kg/injection, schedule: Q04DX003 (ip), vehicle: saline with Tween-80”, the survivor count is reported as 0 of 6.

Consider `C[CH2][Sn](/[CH]=C/C=C/OC)([CH2]C)[CH2]C`, for which the survivor count (T/C endpoint: mean survival time, dose: 0.19 mg/kg/injection, schedule: Q01DX009 (ip), vehicle: saline) is 0 of 3; the survivor count (T/C endpoint: mean survival time, dose: 3.12 mg/kg/injection, schedule: Q01DX009 (ip), vehicle: saline) was 0 of 3; the survivor count (T/C endpoint: mean survival time, dose: 6.25 mg/kg/injection, schedule: Q01DX009 (ip), vehicle: saline) is listed as 0 of 3; the survivor count (T/C endpoint: mean survival time, dose: 12.5 mg/kg/injection, schedule: Q01DX009 (ip), vehicle: saline) is 0 of 3.

On to `CCS(=O)(=O)C(CCC#N)(CCC#N)S(=O)(=O)CC`, for which the survivor count (T/C endpoint: mean survival time, dose: 400.0 mg/kg/injection, schedule: Q01DX001 (ip), vehicle: saline) is 1 of 6.

With `CC(=O)C[n+]1ccccc1Sc1ccc(Cl)cc1`, for the setting “T/C endpoint: median survival time, dose: 200.0 mg/kg/injection, schedule: Q01DX005 (ip), vehicle: saline with Tween-80”, the survivor count is listed as 0 of 6.

For `O=C(O)c1ccc([N+](=O)[O-])cc1.[Ag]`, the survivor count (T/C endpoint: mean survival time, dose: 25.0 mg/kg/injection, schedule: Q04DX003 (ip), vehicle: saline with Tween-80) is 3 of 6; the survivor count under setting [1] is reported as 2 of 6; the survivor count under setting [2] was 1 of 6; the survivor count under setting [3] is listed as 1 of 6.

With `N#CCc1nc2ccccc2[nH]1`, the survivor count (T/C endpoint: mean survival time, dose: 100.0 mg/kg/injection, schedule: Q01DX009 (ip), vehicle: Klucel (hydroxypropylcellulose) (HPC)) is recorded as 2 of 6.

In the case of `CC(C)(C)N1CC1CNC(=O)C(=O)NCC1CN1C(C)(C)C` (centres undefined), the T/C (T/C endpoint: mean survival time, dose: 6.25 mg/kg/injection, schedule: Q01DX009 (ip), vehicle: saline with Tween-80) was 137 % of control (2×); the T/C (T/C endpoint: mean survival time, dose: 25.0 mg/kg/injection, schedule: Q01DX009 (oral), vehicle: saline with Tween-80) is 135 % of control; the T/C (T/C endpoint: median survival time, dose: 3.13 mg/kg/injection, schedule: Q01DX009 (ip), vehicle: saline with Tween-80) is 129 % of control. The survivor count is 2 of 6 (T/C endpoint: mean survival time, dose: 50.0 mg/kg/injection, schedule: Q01DX009 (oral), vehicle: saline with Tween-80); 3 of 6 (T/C endpoint: mean survival time, dose: 100.0 mg/kg/injection, schedule: Q01DX009 (oral), vehicle: saline with Tween-80); 6 of 10 and 10 of 10 (T/C endpoint: median survival time, dose: 50.0 mg/kg/injection, schedule: Q01DX009 (ip), vehicle: saline with Tween-80).

`CO[C@@]12[C@@H]3N[C@@H]3CN1C1=C(C(=O)C(NCCC#N)=C(C)C1=O)[C@@H]2COC(N)=O`: the T/C reads like this: (T/C endpoint: mean survival time, dose: 3.0 mg/kg/injection, schedule: Q01DX001 (ip), vehicle: water) 129 % of control; (T/C endpoint: mean survival time, dose: 6.0 mg/kg/injection, schedule: Q01DX001 (ip), vehicle: water) 132 % of control; (T/C endpoint: mean survival time, dose: 12.0 mg/kg/injection, schedule: Q01DX001 (ip), vehicle: water) 137 % of control. The survivor count (T/C endpoint: mean survival time, dose: 24.0 mg/kg/injection, schedule: Q01DX001 (ip), vehicle: water) is listed as 3 of 6.

For `NC(=O)NN=C1CCC1`, the survivor count by setting is: (T/C endpoint: mean survival time, dose: 150.0 mg/kg/injection, schedule: Q01DX001 (ip), vehicle: saline) 3 of 6; (T/C endpoint: mean survival time, dose: 300.0 mg/kg/injection, schedule: Q01DX001 (ip), vehicle: saline) 2 of 6.

On to `NC(=O)c1ccc(Cl)c(Cl)c1`, for which, where the note is “T/C endpoint: mean survival time, dose: 400.0 mg/kg/injection, schedule: Q01DX009 (ip), vehicle: saline with Tween-80”, the survivor count was 0 of 6.

As to `CN=NC1(OC(C)=O)CCCC1`, the survivor count is 1 of 3 (T/C endpoint: mean survival time, dose: 50.0 mg/kg/injection, schedule: Q01DX009 (ip), vehicle: saline); 0 of 3 under setting [5]; 0 of 3 under setting [6]; 0 of 3 under setting [7].

Regarding `[NH-]C(CO)C(=O)O.[NH-]C(CO)C(=O)O.[Pt+2]` (centres undefined), the T/C (T/C endpoint: mean survival time, dose: 3.13 mg/kg/injection, schedule: Q04DX003 (ip), vehicle: saline) was 127 % of control.

`[Cl][Pt+2][Cl].[NH-]CC1([NH-])CCCCC1`: the T/C by setting is: (T/C endpoint: mean survival time, dose: 3.12 mg/kg/injection, schedule: Q04DX003 (ip), vehicle: saline with Tween-80) 127 % of control; (T/C endpoint: mean survival time, dose: 6.25 mg/kg/injection, schedule: Q04DX003 (ip), vehicle: saline with Tween-80) 127 % of control. Moreover, the survivor count (T/C endpoint: mean survival time, dose: 12.5 mg/kg/injection, schedule: Q04DX003 (ip), vehicle: saline) was 6 of 6; the survivor count (T/C endpoint: mean survival time, dose: 25.0 mg/kg/injection, schedule: Q04DX003 (ip), vehicle: saline) is given as 0 of 6; the survivor count (T/C endpoint: mean survival time, dose: 50.0 mg/kg/injection, schedule: Q04DX003 (ip), vehicle: saline) was 2 of 6; the survivor count (T/C endpoint: mean survival time, dose: 100.0 mg/kg/injection, schedule: Q04DX003 (ip), vehicle: saline) is listed as 0 of 6; the survivor count under setting [8] was 0 of 6.

For the molecule `CCN(CC)C(=O)N1CC2CCC(C1)N2C`, the survivor count under setting [8] is 0 of 6 and the survivor count under setting [4] is on record as 0 of 6.

With `CCCCc1ccc(N=C(N)N=C(N)N)cc1`, the survivor count runs as follows: (T/C endpoint: mean survival time, dose: 75.0 mg/kg/injection, schedule: Q01DX001 (ip), vehicle: other) 3 of 6; (T/C endpoint: mean survival time, dose: 150.0 mg/kg/injection, schedule: Q01DX001 (ip), vehicle: other) 0 of 6; under setting [9], 0 of 6.

On to `O=C1C2C3SC(c4nc5ccccc5cc43)C2C(=O)N1c1ccccc1` (centres undefined), for which the survivor count (T/C endpoint: mean survival time, dose: 100.0 mg/kg/injection, schedule: Q01DX001 (ip), vehicle: saline with Tween-80) was 3 of 3.

Take `O=C1CSC(=S)N1/N=C/c1cc(Cl)cc(Cl)c1O`: the survivor count under setting [9] is recorded as 0 of 6.

For the molecule `O/N=C/c1cccc[n+]1Cc1ccccc1`, the survivor count is listed as 0 of 6 (T/C endpoint: mean survival time, dose: 50.0 mg/kg/injection, schedule: Q01DX009 (ip), vehicle: water); 0 of 6 (T/C endpoint: mean survival time, dose: 100.0 mg/kg/injection, schedule: Q01DX009 (ip), vehicle: water); 0 of 6 (T/C endpoint: mean survival time, dose: 200.0 mg/kg/injection, schedule: Q01DX009 (ip), vehicle: water); 0 of 6 (T/C endpoint: mean survival time, dose: 400.0 mg/kg/injection, schedule: Q01DX009 (ip), vehicle: water).

Regarding `NC(CSC(c1ccccc1)(c1ccccc1)c1ccc(F)cc1)C(=O)O` (centres undefined), under setting [5], the T/C is 130 % of control. Also, the survivor count reads like this: under setting [6], 3 of 6; under setting [7], 0 of 6.

As to `CN=[N+]([O-])C1(OC(C)=O)CCCC1`, the survivor count (T/C endpoint: mean survival time, dose: 200.0 mg/kg/injection, schedule: Q01DX001 (ip), vehicle: saline) was 4 of 6.

`[Br][Pt+2][Br].[NH-]c1ccc(F)cc1.[NH-]c1ccc(F)cc1`: the survivor count (T/C endpoint: mean survival time, dose: 200.0 mg/kg/injection, schedule: Q04DX003 (ip), vehicle: distilled water + Tween-80) is 6 of 6.

Turning to `CCCCC/C(C)=N\O`, the survivor count under setting [3] is listed as 1 of 6.

Source of the values: PubChem BioAssay AID256 (DTP/NCI, 2004).
